Reference: patent US20220041582A1, “ISOXAZOLINE COMPOUNDS FOR CONTROLLING INVERTEBRATE PESTS” (FMC Corporation, priority 2018, published 2022)
Some entries share one result that the patent states for a list of compounds.

How the values were obtained:
Type in all cases: in vivo
[1] = system: fall armyworm (Spodoptera frugiperda (J. E. Smith)); experiment: Test B: control of fall armyworm on corn plant, foliar spray; details: 6 days, 40% or less feeding damage and/or 100% mortality
[2] = system: Western Flower Thrips (Frankliniellla occidentalis (Pergande)); experiment: Test H: control of Western Flower Thrips through contact and/or systemic means; details: 6 days, 30% or less plant damage and/or 100% mortality
Method: (§1) Formulation and Spray Methodology for Tests A-H
(§2) Test compounds were formulated using a solution containing 10% acetone, 90% water and 300 ppm Activator 90® non-ionic surfactant (Loveland Products, Loveland, Colo., USA). The formulated compounds were applied in 1 mL of liquid through an atomizer nozzle positioned 1.27 cm (0.5 inches) above the top of each test unit. Test compounds were sprayed at the rates indicated, and each test was replicated three times.
For evaluating control of the Western Flower Thrips (Frankliniellla occidentalis (Pergande)) through contact and/or systemic means, the test unit consisted of a small open container with a 8-9-day-old Soleil bean plant inside.
Test compounds were formulated and sprayed at 250, 50, 10 and 2 ppm. After spraying, the test units were allowed to dry for 1 hour, and then ˜60 thrips (adults and nymphs) were added to each unit. A black, screened cap was placed on top, and the test units were held for 6 days at 25° C. and 45-55% relative humidity. Each test unit was then visually assessed for plant damage and insect mortality.

[3] = system: diamondback moth (Plutella xylostella (L.)); experiment: Test A: control of diamondback moth on mustard plant, foliar spray; details: 6 days, 40% or less feeding damage and/or 100% mortality
[4] = system: cotton melon aphid (Aphis gossypii (Glover)); experiment: Test F: control of cotton melon aphid through contact and/or systemic means; details: 50 ppm spray; 6 days
Method: as §1, §2
[…] This was pre-infested with 30-40 insects on a piece of leaf according to the cut-leaf method, and the soil of the test unit was covered with a layer of sand.
Test compounds were formulated and sprayed at 250, 50 and 10 ppm. After spraying, the test units were maintained in a growth chamber for 6 days at 19° C. and 70% relative humidity. Each test unit was then visually assessed for insect mortality.

[5] = system: green peach aphid (Myzus persicae (Sulzer)); experiment: Test E: control of green peach aphid through contact and/or systemic means; details: 50 ppm spray; 6 days
Method: as §1, §2
For evaluating control of green peach aphid (Myzus persicae (Sulzer)) through contact and/or systemic means, the test unit consisted of a small open container with a 12-15-day-old radish plant inside. This was pre-infested by placing on a leaf of the test plant 30-40 aphids on a piece of leaf excised from a culture plant (cut-leaf method). The aphids moved onto the test plant as the leaf piece desiccated. After pre-infestation, the soil of the test unit was covered with a layer of sand.
Test compounds were formulated and sprayed at 250, 50 and 10 ppm. After spraying of the formulated test compound, each test unit was allowed to dry for 1 hour and then a black, screened cap was placed on top. The test units were held for 6 days in a growth chamber at 19-21° C. and 50-70% relative humidity. Each test unit was then visually assessed for insect mortality.

SMILES | control efficacy: feeding damage (and/or 100% mortality) ([1]; 10 ppm spray) | control efficacy: plant damage (and/or 100% mortality) ([2]; 2 ppm spray) | control efficacy: plant damage (and/or 100% mortality) ([2]; 10 ppm spray) | control efficacy: feeding damage (and/or 100% mortality) ([3]; 0.4 ppm spray) | control efficacy: feeding damage (and/or 100% mortality) ([3]; 2 ppm spray) | control efficacy: feeding damage (and/or 100% mortality) ([3]; 10 ppm spray) | mortality [4] | mortality [5] | control efficacy: feeding damage (and/or 100% mortality) ([1]; 0.4 ppm spray) | control efficacy: feeding damage (and/or 100% mortality) ([1]; 2 ppm spray) | control efficacy: plant damage (and/or 100% mortality) ([2]; 0.4 ppm spray)
N#CCNC(=O)c1ccc(C2=NOC(c3cc(Cl)c(F)c(Cl)c3)(C(F)(F)F)C2)c2ccncc12 (stereo not drawn) [Compound 15] | ≤ 40% | ≤ 30% | ≤ 30% | ≤ 40% | ≤ 40% | ≤ 40% | at least 80% |  |  |  | 
CSCCNC(=O)c1ccc(C2=NOC(c3cc(Cl)cc(C(F)(F)F)c3)(C(F)(F)F)C2)c2ccncc12 (stereo not drawn) [Compound 34] | ≤ 40% | ≤ 30% | ≤ 30% |  | ≤ 40% | ≤ 40% |  | at least 80% |  |  | 
CS(=O)(=O)CCNC(=O)c1ccc(C2=NOC(c3cc(Cl)cc(C(F)(F)F)c3)(C(F)(F)F)C2)c2ccncc12 (stereo not drawn) [Compound 38] | ≤ 40% | ≤ 30% | ≤ 30% |  | ≤ 40% | ≤ 40% |  | at least 80% |  |  | 
C#CCNC(=O)c1ccc(C2=NOC(c3cc(Cl)c(F)c(Cl)c3)(C(F)(F)F)C2)c2ccncc12 (stereo not drawn) [Compound 48, 5-[5-(3,5-dichloro-4-fluorophenyl)-4,5-dihydro-5-(trifluoromethyl)-3-isoxazolyl]-N-2-propyn-1-yl-8-isoquinolinecarboxamide] | ≤ 40% | ≤ 30% | ≤ 30% | ≤ 40% | ≤ 40% | ≤ 40% |  |  | ≤ 40% | ≤ 40% | ≤ 30%
CC(CC#N)NC(=O)c1ccc(C2=NOC(c3cc(Cl)c(F)c(Cl)c3)(C(F)(F)F)C2)c2ccncc12 (stereo not drawn) [Compound 50] | ≤ 40% | ≤ 30% | ≤ 30% | ≤ 40% | ≤ 40% | ≤ 40% |  |  |  |  | 
N#CCCNC(=O)c1ccc(C2=NOC(c3cc(Cl)c(F)c(Cl)c3)(C(F)(F)F)C2)c2ccncc12 (stereo not drawn) [Compound 51] | ≤ 40% | ≤ 30% | ≤ 30% | ≤ 40% | ≤ 40% | ≤ 40% |  |  |  |  | 
CC(C#N)NC(=O)c1ccc(C2=NOC(c3cccc(C(F)(F)F)c3)(C(F)(F)F)C2)c2ccncc12 (stereo not drawn) [Compound 52] | ≤ 40% | ≤ 30% | ≤ 30% | ≤ 40% | ≤ 40% | ≤ 40% |  |  |  |  | 
CC(C)C(C#N)NC(=O)c1ccc(C2=NOC(c3cccc(C(F)(F)F)c3)(C(F)(F)F)C2)c2ccncc12 (stereo not drawn) [Compound 54] | ≤ 40% |  | ≤ 30% | ≤ 40% | ≤ 40% | ≤ 40% |  |  |  |  | 
